No constants are given. Whether binding was seen depends on the method and setting. In cells and extracts the contact can be indirect. Some results given as binding are weak or reduced against the parent protein; the word gives no strength.
Molecular target: Fas ligand (mouse (endogenous in CD8+ T cells from spleen)) (UniProt P41047)
Assay: co-IP; CD8+ T cells from mouse spleen incubated with anti-CD3 and anti-CD28 mAb for 18 h, pre-incubated with or without recombinant Gal1 (25 ug/ml) for 15 min; 500 ug cell lysate with 2 ug anti-FasL (sc-956) or isotype control antibody, Protein G PLUS-Agarose, immunoblotting; only the binder purified

By UniProt entry, the sequences of proteins in these tests, tags left out.
UniProt P41047: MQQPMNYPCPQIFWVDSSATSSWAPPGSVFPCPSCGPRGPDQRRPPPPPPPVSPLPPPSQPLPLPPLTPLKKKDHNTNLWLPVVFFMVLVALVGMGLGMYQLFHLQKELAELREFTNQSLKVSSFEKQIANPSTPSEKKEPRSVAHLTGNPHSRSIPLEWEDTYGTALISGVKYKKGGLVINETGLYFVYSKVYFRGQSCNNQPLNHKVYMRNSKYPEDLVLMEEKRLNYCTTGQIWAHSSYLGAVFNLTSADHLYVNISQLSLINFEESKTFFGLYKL
UniProt P09382: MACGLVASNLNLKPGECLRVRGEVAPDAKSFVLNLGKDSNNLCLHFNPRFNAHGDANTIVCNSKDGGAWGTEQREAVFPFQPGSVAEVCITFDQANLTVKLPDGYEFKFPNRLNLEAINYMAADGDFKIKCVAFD

recombinant galectin-1 (from UniProt P09382 1-135)
binding: binds

Source: PMC5827204
